Some of the results follow.
Columns and labels:
Experiment in all cases: glycan array binding signal (z-score within array); higher = stronger binding
Settings in all cases: glycan notation: IUPAC condensed, linker removed
[1] = target: GlcNAc(b1-3)Gal(b1-4)GlcNAc
Procedure, shortened: (§1)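 From the Consortium for Functional Glycomics database, 3228 arrays were curated, keeping only those whose protein sequence was available. Binding is given as a within-array Z-score averaged across arrays sharing a protein sequence and across linkers. Negative Z-scores can be read as non-binding.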

[2] = target: GlcNAc(b1-3)Gal(b1-4)GlcNAc(b1-2)Man(a1-3)[GlcNAc(b1-3)Gal(b1-4)GlcNAc(b1-2)Man(a1-6)]Man(b1-4)GlcNAc(b1-4)GlcNAc
Procedure, shortened: as §1

[3] = target: GlcNAc(b1-3)Gal(b1-4)GlcNAc(b1-2)Man(a1-3)[GlcNAc(b1-3)Gal(b1-4)GlcNAc(b1-2)Man(a1-6)]Man(b1-4)GlcNAc(b1-4)[Fuc(a1-6)]GlcNAc
Procedure, shortened: as §1

[4] = target: GlcNAc(b1-3)Gal(b1-4)GlcNAc(b1-2)[GlcNAc(b1-3)Gal(b1-4)GlcNAc(b1-6)]Man(a1-6)[GlcNAc(b1-3)Gal(b1-4)GlcNAc(b1-2)Man(a1-3)]Man(b1-4)GlcNAc(b1-4)GlcNAc
Procedure, shortened: as §1

[5] = target: GlcNAc(b1-3)Gal(b1-4)GlcNAc(b1-3)Gal(b1-4)GlcNAc
Procedure, shortened: as §1

[6] = target: GlcNAc(b1-3)Gal(b1-4)GlcNAc(b1-3)Gal(b1-4)GlcNAc(b1-2)Man(a1-3)[GlcNAc(b1-3)Gal(b1-4)GlcNAc(b1-3)Gal(b1-4)GlcNAc(b1-2)Man(a1-6)]Man(b1-4)GlcNAc(b1-4)GlcNAc
Procedure, shortened: as §1

[7] = target: GlcNAc(b1-3)Gal(b1-4)GlcNAc(b1-3)Gal(b1-4)GlcNAc(b1-2)Man(a1-3)[GlcNAc(b1-3)Gal(b1-4)GlcNAc(b1-3)Gal(b1-4)GlcNAc(b1-2)Man(a1-6)]Man(b1-4)GlcNAc(b1-4)[Fuc(a1-6)]GlcNAc
Procedure, shortened: as §1

[8] = target: GlcNAc(b1-3)Gal(b1-4)GlcNAc(b1-3)Gal(b1-4)GlcNAc(b1-2)[GlcNAc(b1-3)Gal(b1-4)GlcNAc(b1-3)Gal(b1-4)GlcNAc(b1-6)]Man(a1-6)[GlcNAc(b1-3)Gal(b1-4)GlcNAc(b1-3)Gal(b1-4)GlcNAc(b1-2)Man(a1-3)]Man(b1-4)GlcNAc(b1-4)[Fuc(a1-6)]GlcNAc
Procedure, shortened: as §1

[9] = target: GlcNAc(b1-3)Gal(b1-4)GlcNAc(b1-3)Gal(b1-4)GlcNAc(b1-3)Gal(b1-4)GlcNAc(b1-2)Man(a1-3)[GlcNAc(b1-3)Gal(b1-4)GlcNAc(b1-3)Gal(b1-4)GlcNAc(b1-3)Gal(b1-4)GlcNAc(b1-2)Man(a1-6)]Man(b1-4)GlcNAc(b1-4)GlcNAc
Procedure, shortened: as §1

[10] = target: GlcNAc(b1-3)Gal(b1-4)GlcNAc(b1-3)Gal(b1-4)GlcNAc(b1-3)Gal(b1-4)GlcNAc(b1-2)Man(a1-3)[GlcNAc(b1-3)Gal(b1-4)GlcNAc(b1-3)Gal(b1-4)GlcNAc(b1-3)Gal(b1-4)GlcNAc(b1-2)Man(a1-6)]Man(b1-4)GlcNAc(b1-4)[Fuc(a1-6)]GlcNAc
Procedure, shortened: as §1

[11] = target: GlcNAc(b1-3)Gal(b1-4)GlcNAc(b1-3)Gal(b1-4)GlcNAc(b1-3)Gal(b1-4)GlcNAc(b1-2)[GlcNAc(b1-3)Gal(b1-4)GlcNAc(b1-3)Gal(b1-4)GlcNAc(b1-3)Gal(b1-4)GlcNAc(b1-6)]Man(a1-6)[GlcNAc(b1-3)Gal(b1-4)GlcNAc(b1-3)Gal(b1-4)GlcNAc(b1-3)Gal(b1-4)GlcNAc(b1-2)Man(a1-3)]Man(b1-4)GlcNAc(b1-4)[Fuc(a1-6)]GlcNAc
Procedure, shortened: as §1

[12] = target: GlcNAc(b1-3)Gal(b1-4)GlcNAc(b1-3)Gal(b1-4)GlcNAc(b1-3)Gal(b1-4)GlcNAc(b1-3)Gal(b1-4)GlcNAc(b1-2)Man(a1-3)[GlcNAc(b1-3)Gal(b1-4)GlcNAc(b1-3)Gal(b1-4)GlcNAc(b1-3)Gal(b1-4)GlcNAc(b1-3)Gal(b1-4)GlcNAc(b1-2)Man(a1-6)]Man(b1-4)GlcNAc(b1-4)GlcNAc
Procedure, shortened: as §1

[13] = target: GlcNAc(b1-3)Gal(b1-4)GlcNAc(b1-3)Gal(b1-4)GlcNAc(b1-3)Gal(b1-4)GlcNAc(b1-3)Gal(b1-4)GlcNAc(b1-2)Man(a1-3)[GlcNAc(b1-3)Gal(b1-4)GlcNAc(b1-3)Gal(b1-4)GlcNAc(b1-3)Gal(b1-4)GlcNAc(b1-3)Gal(b1-4)GlcNAc(b1-2)Man(a1-6)]Man(b1-4)GlcNAc(b1-4)[Fuc(a1-6)]GlcNAc
Procedure, shortened: as §1

[14] = target: GlcNAc(b1-3)Gal(b1-4)GlcNAc(b1-3)Gal(b1-4)GlcNAc(b1-3)Gal(b1-4)GlcNAc(b1-3)Gal(b1-4)GlcNAc(b1-2)[GlcNAc(b1-3)Gal(b1-4)GlcNAc(b1-3)Gal(b1-4)GlcNAc(b1-3)Gal(b1-4)GlcNAc(b1-3)Gal(b1-4)GlcNAc(b1-6)]Man(a1-6)[GlcNAc(b1-3)Gal(b1-4)GlcNAc(b1-3)Gal(b1-4)GlcNAc(b1-3)Gal(b1-4)GlcNAc(b1-3)Gal(b1-4)GlcNAc(b1-2)Man(a1-3)]Man(b1-4)GlcNAc(b1-4)[Fuc(a1-6)]GlcNAc
Procedure, shortened: as §1

[15] = target: GlcNAc(b1-3)Gal(b1-4)GlcNAc(b1-3)Gal(b1-4)GlcNAc(b1-3)GalNAc
Procedure, shortened: as §1

[16] = target: GlcNAc(b1-3)Gal(b1-4)GlcNAc(b1-3)GalNAc
Procedure, shortened: as §1

[17] = target: GlcNAc(b1-3)Gal(b1-4)GlcNAc(b1-3)[GlcNAc(b1-3)Gal(b1-4)GlcNAc(b1-3)]GalNAc
Procedure, shortened: as §1

[18] = target: GlcNAc(b1-3)Gal(b1-4)GlcNAc(b1-6)[Gal(b1-3)]GalNAc
Procedure, shortened: as §1

[19] = target: GlcNAc(b1-3)Gal(b1-4)GlcNAc(b1-6)[GlcNAc(b1-3)Gal(b1-3)]GalNAc
Procedure, shortened: as §1

[20] = target: GlcNAc(b1-3)Gal(b1-4)GlcNAc(b1-6)[GlcNAc(b1-3)]Gal(b1-4)GlcNAc
Procedure, shortened: as §1

GlcNAc(b1-3)GalNAc = target: GlcNAc(b1-3)GalNAc
Procedure, shortened: as §1

GlcNAc(b1-3)Man = target: GlcNAc(b1-3)Man
Procedure, shortened: as §1

[21] = target: GlcNAc(b1-3)[GlcNAc(b1-4)][GlcNAc(b1-6)]GlcNAc
Procedure, shortened: as §1

[22] = target: GlcNAc(b1-3)[GlcNAc(b1-6)]Gal(b1-4)GlcNAc
Procedure, shortened: as §1

[23] = target: GlcNAc(b1-3)[GlcNAc(b1-6)]GalNAc
Procedure, shortened: as §1

[24] = target: GlcNAc(b1-4)Gal(b1-4)GlcNAc
Procedure, shortened: as §1

GlcNAc(b1-4)GlcNAc = target: GlcNAc(b1-4)GlcNAc
Procedure, shortened: as §1

[25] = target: GlcNAc(b1-4)GlcNAc(b1-4)GlcNAc
Procedure, shortened: as §1

[26] = target: GlcNAc(b1-4)GlcNAc(b1-4)GlcNAc(b1-4)GlcNAc(b1-4)GlcNAc
Procedure, shortened: as §1

[27] = target: GlcNAc(b1-4)GlcNAc(b1-4)GlcNAc(b1-4)GlcNAc(b1-4)GlcNAc(b1-4)GlcNAc
Procedure, shortened: as §1

[28] = target: GlcNAc(b1-4)[GlcNAc(b1-6)]GalNAc
Procedure, shortened: as §1

[29] = target: GlcNAc(b1-6)Gal(b1-4)GlcNAc
Procedure, shortened: as §1

GlcNAc(b1-6)GalNAc = target: GlcNAc(b1-6)GalNAc
Procedure, shortened: as §1

[30] = target: GlcNAc6S(b1-3)Gal(b1-4)GlcNAc
Procedure, shortened: as §1

Kdn(a2-3)Gal(b1-3)GalNAc = target: Kdn(a2-3)Gal(b1-3)GalNAc
Procedure, shortened: as §1

Kdn(a2-3)Gal(b1-3)GlcNAc = target: Kdn(a2-3)Gal(b1-3)GlcNAc
Procedure, shortened: as §1

Kdn(a2-3)Gal(b1-4)Glc = target: Kdn(a2-3)Gal(b1-4)Glc
Procedure, shortened: as §1

Kdn(a2-3)Gal(b1-4)GlcNAc = target: Kdn(a2-3)Gal(b1-4)GlcNAc
Procedure, shortened: as §1

[31] = target: Kdn(a2-3)Gal(b1-4)[Fuc(a1-3)]GlcNAc
Procedure, shortened: as §1

Kdn(a2-6)Gal(b1-4)GlcNAc = target: Kdn(a2-6)Gal(b1-4)GlcNAc
Procedure, shortened: as §1

[32] = target: Man(a1-2)Man(a1-2)Man(a1-3)Man
Procedure, shortened: as §1

[33] = target: Man(a1-2)Man(a1-2)Man(a1-6)[Man(a1-3)]Man
Procedure, shortened: as §1

Man(a1-2)Man(a1-3)Man = target: Man(a1-2)Man(a1-3)Man
Procedure, shortened: as §1

[34] = target: Man(a1-2)Man(a1-3)[Man(a1-2)Man(a1-6)]Man
Procedure, shortened: as §1

[35] = target: Man(a1-2)Man(a1-3)[Man(a1-2)Man(a1-6)]Man(a1-6)[Man(a1-2)Man(a1-2)Man(a1-3)]Man
Procedure, shortened: as §1

B1: HFR-3 (Triticum aestivum) (protein)
chain: MKGLLLCALALAFAAVTTHAQLQSCPTRCGKQADGMECPNNLCCSKDGYCGLGVDYCSAGAGCQSGACYDNKICGAQANGTLCRNNHCCSSGGRCGYGREYCSNGCQGGPCWADLKCGHLDNGKLCPNNLCCSQYGYCGLGPEFCGTGCQNGACSTDKPCGNKANGAPCTNNYCCSQYGSCGLGKDYCGTGCQNGACN
- glycan array binding signal (z-score) [1]: -1.06
- glycan array binding signal (z-score) [2]: 0.65
- glycan array binding signal (z-score) [3]: -0.299
- glycan array binding signal (z-score) [4]: 0.779
- glycan array binding signal (z-score) [5]: 0.445
- glycan array binding signal (z-score) [6]: -0.023
- glycan array binding signal (z-score) [7]: 1.07
- glycan array binding signal (z-score) [8]: 0.6
- glycan array binding signal (z-score) [9]: -0.075
- glycan array binding signal (z-score) [10]: 0.79
- glycan array binding signal (z-score) [11]: 2.43
- glycan array binding signal (z-score) [12]: 0.099
- glycan array binding signal (z-score) [13]: 0.443
- glycan array binding signal (z-score) [14]: 1.15
- glycan array binding signal (z-score) [15]: -0.473
- glycan array binding signal (z-score) [16]: -0.886
- glycan array binding signal (z-score) [17]: 0.04
- glycan array binding signal (z-score) [18]: -0.109
- glycan array binding signal (z-score) [19]: -1.06
- glycan array binding signal (z-score) [20]: -1.09
- glycan array binding signal (z-score) (GlcNAc(b1-3)GalNAc): 2.18
- glycan array binding signal (z-score) (GlcNAc(b1-3)Man): 1.29
- glycan array binding signal (z-score) [21]: -0.564
- glycan array binding signal (z-score) [22]: 0.507
- glycan array binding signal (z-score) [23]: -0.463
- glycan array binding signal (z-score) [24]: 1
- glycan array binding signal (z-score) (GlcNAc(b1-4)GlcNAc): 0.363
- glycan array binding signal (z-score) [25]: -0.527
- glycan array binding signal (z-score) [26]: -0.387
- glycan array binding signal (z-score) [27]: 0.63
- glycan array binding signal (z-score) [28]: -0.003
- glycan array binding signal (z-score) [29]: 1.51
- glycan array binding signal (z-score) (GlcNAc(b1-6)GalNAc): -0.591
- glycan array binding signal (z-score) [30]: 1.06
- glycan array binding signal (z-score) (Kdn(a2-3)Gal(b1-3)GalNAc): 2.75
- glycan array binding signal (z-score) (Kdn(a2-3)Gal(b1-3)GlcNAc): -1.78
- glycan array binding signal (z-score) (Kdn(a2-3)Gal(b1-4)Glc): 0.83
- glycan array binding signal (z-score) (Kdn(a2-3)Gal(b1-4)GlcNAc): 0.46
- glycan array binding signal (z-score) [31]: -0.099
- glycan array binding signal (z-score) (Kdn(a2-6)Gal(b1-4)GlcNAc): -1.3
- glycan array binding signal (z-score) [32]: 0.279
- glycan array binding signal (z-score) [33]: 1.93
- glycan array binding signal (z-score) (Man(a1-2)Man(a1-3)Man): -1.73
- glycan array binding signal (z-score) [34]: -0.898
- glycan array binding signal (z-score) [35]: -0.42
